In publication PMC8608904:
Changes are numbered by the printed parent chain. No constants are given. Whether binding was seen depends on the method and setting. Binding seen in cells or lysates may run through a third protein. Some entries that bind do so weakly or less than the wild type.

Protein sequences, listed by entry. Tags and fused reporters are not part of them. Residues count along the entry.
UniProt Q8K0P3, residues 235-410: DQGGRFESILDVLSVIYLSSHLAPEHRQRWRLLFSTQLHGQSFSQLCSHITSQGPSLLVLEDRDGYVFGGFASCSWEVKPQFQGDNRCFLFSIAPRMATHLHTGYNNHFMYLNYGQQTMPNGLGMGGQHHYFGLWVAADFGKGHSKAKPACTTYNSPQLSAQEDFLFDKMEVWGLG
UniProt Q91YH6: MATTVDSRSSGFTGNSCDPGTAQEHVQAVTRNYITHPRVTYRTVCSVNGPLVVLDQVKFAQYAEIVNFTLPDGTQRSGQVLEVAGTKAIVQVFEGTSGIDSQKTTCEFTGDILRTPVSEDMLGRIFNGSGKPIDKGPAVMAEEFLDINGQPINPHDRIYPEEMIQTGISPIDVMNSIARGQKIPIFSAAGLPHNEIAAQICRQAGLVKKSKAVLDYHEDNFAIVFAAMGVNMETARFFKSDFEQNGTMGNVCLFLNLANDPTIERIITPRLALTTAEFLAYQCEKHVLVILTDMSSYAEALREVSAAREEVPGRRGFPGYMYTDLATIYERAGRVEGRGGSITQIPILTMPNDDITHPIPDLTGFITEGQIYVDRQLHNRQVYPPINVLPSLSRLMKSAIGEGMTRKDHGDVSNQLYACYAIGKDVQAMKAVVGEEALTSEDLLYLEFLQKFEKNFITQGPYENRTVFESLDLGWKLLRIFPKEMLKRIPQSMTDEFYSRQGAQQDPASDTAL

Assays:
[1] = target: T1, Tbc1d24 (336-446_496-556) (mouse) (UniProt Q3UUG6); test: condition: approximately 14 pmol of GST-tagged protein on beads; pull-down; about 14 pmol purified GST-tagged bait on glutathione-Sepharose 4B beads, incubated with mouse kidney lysate (25 mM Tris-HCl pH 7.4, 150 mM NaCl, 5 mM EDTA, 1% Triton X-100); western blot with anti-B1; only the target purified
T1 sequence: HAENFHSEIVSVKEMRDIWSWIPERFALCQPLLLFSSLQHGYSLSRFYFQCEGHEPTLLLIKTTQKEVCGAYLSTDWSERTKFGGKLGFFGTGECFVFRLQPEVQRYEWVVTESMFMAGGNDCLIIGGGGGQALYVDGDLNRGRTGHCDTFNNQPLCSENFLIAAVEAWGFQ

[2] = target: T2, G845A mutant of the TLDc domain of Ncoa7 (775–943) (mouse) (UniProt Q6DFV7); test: as above
T2 sequence: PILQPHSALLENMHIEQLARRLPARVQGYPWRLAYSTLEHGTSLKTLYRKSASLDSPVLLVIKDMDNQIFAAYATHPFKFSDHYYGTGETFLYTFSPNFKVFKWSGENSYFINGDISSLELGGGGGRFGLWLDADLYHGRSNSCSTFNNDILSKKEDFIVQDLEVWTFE

Tldc1 (235–410) (mouse) = Tldc1 (235–410) (mouse) (UniProt Q8K0P3); test: as above
Ncoa7 (593–750) (mouse) = target: T3, Ncoa7 (593–750) (mouse) (UniProt Q6DFV7); test: as above
T3 sequence: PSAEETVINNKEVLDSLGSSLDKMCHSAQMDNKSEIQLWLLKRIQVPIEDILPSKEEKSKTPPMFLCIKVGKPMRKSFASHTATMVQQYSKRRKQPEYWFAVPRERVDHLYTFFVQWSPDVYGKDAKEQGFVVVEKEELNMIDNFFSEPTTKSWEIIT

[3] = target: T4, G802A mutant of the TLDc domain of Ncoa7 (775–943) (mouse) (UniProt Q6DFV7); test: pull-down; about 14 pmol purified GST-tagged bait on glutathione-Sepharose 4B beads, incubated with mouse kidney lysate (25 mM Tris-HCl pH 7.4, 150 mM NaCl, 5 mM EDTA, 1% Triton X-100); western blot with anti-B1; only the target purified
T4 sequence: T2 sequence with G28A, A71G

Ncoa7 (751–943) (mouse) = target: T5, Ncoa7 (751–943) (mouse) (UniProt Q6DFV7); test: as above
T5 sequence: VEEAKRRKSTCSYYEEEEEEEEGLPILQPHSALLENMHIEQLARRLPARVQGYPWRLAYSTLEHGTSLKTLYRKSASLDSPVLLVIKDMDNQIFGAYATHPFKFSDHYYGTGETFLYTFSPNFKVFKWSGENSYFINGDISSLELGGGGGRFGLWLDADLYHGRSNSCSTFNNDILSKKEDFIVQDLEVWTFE

[4] = target: T6, C-terminal Ncoa7 (593–943) (mouse) (UniProt Q6DFV7); test: as above
T6 sequence: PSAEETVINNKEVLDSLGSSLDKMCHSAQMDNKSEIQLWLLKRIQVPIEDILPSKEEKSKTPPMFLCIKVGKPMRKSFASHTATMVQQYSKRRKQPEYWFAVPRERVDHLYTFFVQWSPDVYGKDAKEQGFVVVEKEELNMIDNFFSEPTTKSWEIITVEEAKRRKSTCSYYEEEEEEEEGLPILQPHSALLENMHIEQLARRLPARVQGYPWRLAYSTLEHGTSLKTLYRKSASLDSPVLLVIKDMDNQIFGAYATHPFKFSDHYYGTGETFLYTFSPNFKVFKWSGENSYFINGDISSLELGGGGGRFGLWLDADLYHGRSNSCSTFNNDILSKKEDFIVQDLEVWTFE

[5] = target: T7, S817A mutant of the TLDc domain of Ncoa7 (775–943) (mouse) (UniProt Q6DFV7); test: as above
T7 sequence: T2 sequence with S43A, A71G

[6] = target: T8, L926A mutant of the TLDc domain of Ncoa7 (775–943) (mouse) (UniProt Q6DFV7); test: as above
T8 sequence: T2 sequence with A71G, L152A

binding [1]: no binding | binding [2]: no binding | binding (Tldc1 (235–410) (mouse)): no binding | binding (Ncoa7 (593–750) (mouse)): no binding | binding [3]: binds | binding (Ncoa7 (751–943) (mouse)): binds | binding [4]: binds | binding [5]: binds | binding [6]: binds weakly
Substance: B1 subunit of V-ATPase (from UniProt Q91YH6 1-513)
